For test [1], the system named is Wistar rats after chronic unpredictable mild stress. Put plainly: CUMS model: Sucrose Preference Test. The format is in vivo. To be noted: diazepam 0.5 mg/kg i.p.; FQSE 0.05 and 0.5 mg/kg i.n.; 16 injections. Here is the method:
(§1) During stress, the animals were placed in individual cells and exposed to stressful conditions each day for 26 days. Two stressors were used daily, applied in the following order: • Day 1. 10 am-6 pm, rats were placed in a cold room for an hour. From 6 PM to 10 am the lights were turned on and off every 2 hours. • Day 2. 10 am-6 pm, cage tilted to 45°. From 6 PM to 10 am water deprivation. • Day 3. 10 am-6 pm, stroboscopic light. From 6 PM to 10 am the light was left on overnight. • Day 4. 10 am-6 pm, wet bedding. From 6 PM to 10 am the animals were put in a small mouse cage. • Day 5. 10 am-6 pm, no bedding. From 6 PM to 10 am the lights were turned on and off every 2 hours. • Day 6. 10 am-6 pm, a new rat was placed in the cage (6-month-old). From 6 PM to 10 am the light was left on overnight. • Day 7. 10 am-6 pm, white noise. […]
A test was used to determine the preference for a sucrose solution to assess the state of anhedonia (rejection of pleasure), a key symptom of depression. […] The drinkers were pre-weighed, and the volume of liquid consumed was calculated based on the mass difference. The measured parameters included the volume of regular water, sweet water, and the total volume of liquid consumed. The preference index was calculated using the formula: The volume of sweet water consumed*100%/Total volume of liquid consumed. […]

Test [2] concerns FQSE (SEQ ID NO:10)-specific binding sites in the rat cortex. Put plainly: Radioligand analysis with [3H] FQSE on rat cortex membranes. Here is the method: After decapitation, the tissues were immediately frozen in liquid nitrogen and stored in a low-temperature refrigerator at −80° C. On the day of the experiment, brain tissue (cortex, about 300 mg) was homogenized in a Teflon-glass Potter homogenizer 1:25 W:V in the buffer (50 mM Tris-HCl, pH 7.4). The homogenate was centrifuged at 40,000 g for 20 min. The obtained precipitate was homogenized in a buffer (50 mM Tris-HCl; pH=7.4) and centrifuged again at 40,000 g for 20 min. A similar procedure was performed again. The precipitate was resuspended in 15 ml of the same buffer and used for the radioligand analysis.
The incubation mixture (final volume 0.5 ml) contained 50 μl […]
At the end of the incubation, the samples were filtered through Ge/C glass fiber filters (Whatman) previously moistened with 0.3% polyethyleneimine for 2 hours at room temperature. Each tube was washed twice with cold buffer, then the filters were washed twice with the same volume of buffer.
The filters were air-dried and transferred to scintillation vials. Filters were poured with 5 ml of toluene-based scintillation liquid (4 g PPO, 0.2 g POPOP per liter of toluene).
To construct the curves of the radioactive ligand's displacement each concentration of the test substance was taken in 3 replications. […]

The next test relates to zebrafish (Danio rerio). Put plainly: Light/dark box test in zebrafish. The format is in vivo. To be noted: ip; FQSE 10 mg/kg; diazepam 5 mg/kg. Here is the method: The tested substances were injected into the zebrafish intraperitoneally (ip) using an insulin syringe (0.5 ml, 30 g) 10 minutes before the test. The saline solution (0.9% NaCl) was used as a solvent. Anesthesia and immobilization of the animals were achieved by placing them in water at a temperature of 10° C. Control group fish received intraperitoneal injections of an equivalent volume of solvent, also after going through a pre-cooling procedure.
A base, back, and side walls of the aquarium were made of matte black plastic; the front panel (shorter wall) was made of transparent Plexiglas. The setup for the Light/Dark preference test consisted of three main parts: a launch compartment, a light compartment made of white plastic, and a dark compartment made of black plastic. […]
The light/dark box (LDB) test was performed as described in Maximino et al., 2011. The zebrafish was placed in a light compartment of an LDB using a net, the camera was switched on simultaneously, and the behavior of the zebrafish was recorded for 5 minutes. […] During the processing of records, the residence time and the number of visits to the light and dark compartments of the test setup were recorded, as well as the latent period of visiting both compartments.

The next test concerns BALB/C mice. Put plainly: Elevated Plus Maze test in mice. The format is in vivo. To be noted: ip; FQSE 1 mg/kg; Diazepam 0.75 mg/kg. Here is the method: After an adaptation period, the test substance was intraperitoneally injected into mice. Behavioral parameters were measured in 30 minutes after injection. The tests were administered as follows: day 1—the Open field test, day 3—the Elevated plus maze test, day 5—the Marble burying test, days 12-13—the Porsolt swim (two-day modification) test.
In the elevated plus maze test, a test arena includes two open and two closed arms crossed in the middle. The arm length is 30 cm, the height of the closed arms side walls is 15 cm. The entire installation is raised 70 cm above the floor. The open arms have bright uniform illumination of about 400 lux, and the closed arms have illumination of about 30-40 lux. Mice were placed at the junction of the four arms of the maze (center), facing an open arm. […] The same set of parameters, as well as a latent period and the duration of stay, were measured for the central sector, open and closed arms separately. […]
The second group of parameters includes a time on open arms (in seconds) (FIG. 35), a number of open arms entries (FIG. 36), a number of risk behavior (number of rearings and dangle events, as shown in FIG. 37]), and an anxiety index (FIG. 38). The anxiety index (AI) was calculated using the following formula: AI=100*(1−(time on open arms/total test time+open arms entries/total number of entries)/2)

The test system of test [3] is Wistar rats after chronic unpredictable mild stress. In words: CUMS model: Female Urine Sniffing Test. The format is in vivo. To be noted: FQSE 0.5 mg/kg i.n.; Diazepam 0.5 mg/kg i.p.; 8 injections. The method, then:
as §1, with “(6-month-old).” for “(6-month-old). From 6 PM to 10 am the light was left on overnight. • Day 7. 10 am-6 pm, white noise.”
The FUST test was used to evaluate anhedonia, sexual motivation, and exploratory behavior associated with a depressive condition in rodents (Gould et al. (2009). Mood and anxiety related phenotypes in mice. Humana Press). […] The latency of the approach to the swab, the time, and the number of sniffs were recorded. […] The latency of the approach to the swab, the time and the number of sniffs were also recorded. To determine the preference, an index was calculated using the formula: time spent sniffing urine*100%/total sniffing time. […] It is expressed as a decreased latency of approach to the moistened swab and a longer duration of the interaction. […]

Values joined by “and” are separate entries in the source; they are usually repeats but may differ in a detail not shown here. Equal entries are not always repeated.

Turning to `CN1C(=O)CN=C(c2ccccc2)c2cc(Cl)ccc21` [Diazepam], in test [1], the sucrose preference index entry is reported as “no significant changes”. In addition, the “Amount of bound [3H] FQSE after pre-incubation compared to control level” value in test [2] is 90% and 86%. Moreover, in the test on zebrafish (Danio rerio), the “decrease in the time spent in the dark compartment relatively to the control group” value is given as “approximately 40%” and the “relative increase in the time spent in the light compartment compared with the control group” value is “approximately 210%”. The Anxiety index in the test on BALB/C mice was 73±4.7%. Also, in test [3], the “female urine preference index” value was “had no effect”.

Values taken from patent US12178838B2, “Synthetic neuromodulatory peptides” (Lactocore, Inc., priority 2019, dated 2024).
